Results are given in words; binding and its absence hold for the method and conditions named. In cells and extracts the contact can be indirect. These calls come from enrichment with a bait or labelling near it, and not all partners need be listed.
B1: JunB (protein, UniProt P17275 1-347)
chain: MCTKMEQPFYHDDSYTATGYGRAPGGLSLHDYKLLKPSLAVNLADPYRSLKAPGARGPGPEGGGGGSYFSGQGSDTGASLKLASSELERLIVPNSNGVITTTPTPPGQYFYPRGGGSGGGAGGAGGGVTEEQEGFADGFVKALDDLHKMNHVTPPNVSLGATGGPPAGPGGVYAGPEPPPVYTNLSSYSPASASSGGAGAAVGTGSSYPTTTISYLPHAPPFAGGHPAQLGLGRGASTFKEEPQTVPEARSRDATPPVSPINMEDQERIKVERKRLRNRLAATKCRKRKLERIARLEDKVKTLKAENAGLSSTAGLLREQVAQLKQKVMTHVSNGCQLLLGVKGHAF
B2: JunD (protein, UniProt P17535 1-347)
chain: METPFYGDEALSGLGGGASGSGGSFASPGRLFPGAPPTAAAGSMMKKDALTLSLSEQVAAALKPAAAPPPTPLRADGAPSAAPPDGLLASPDLGLLKLASPELERLIIQSNGLVTTTPTSSQFLYPKVAASEEQEFAEGFVKALEDLHKQNQLGAGAAAAAAAAAAGGPSGTATGSAPPGELAPAAAAPEAPVYANLSSYAGGAGGAGGAATVAFAAEPVPFPPPPPPGALGPPRLAALKDEPQTVPDVPSFGESPPLSPIDMDTQERIKAERKRLRNRIAASKCRKRKLERISRLEEKVKTLKSQNTELASTASLLREQVAQLKQKVLSHVNSGCQLLPQHQVPAY
B3: ILF3 (protein, UniProt Q12906 1-894)
chain: MRPMRIFVNDDRHVMAKHSSVYPTQEELEAVQNMVSHTERALKAVSDWIDEQEKGSSEQAESDNMDVPPEDDSKEGAGEQKTEHMTRTLRGVMRVGLVAKGLLLKGDLDLELVLLCKEKPTTALLDKVADNLAIQLAAVTEDKYEILQSVDDAAIVIKNTKEPPLSLTIHLTSPVVREEMEKVLAGETLSVNDPPDVLDRQKCLAALASLRHAKWFQARANGLKSCVIVIRVLRDLCTRVPTWGPLRGWPLELLCEKSIGTANRPMGAGEALRRVLECLASGIVMPDGSGIYDPCEKEATDAIGHLDRQQREDITQSAQHALRLAAFGQLHKVLGMDPLPSKMPKKPKNENPVDYTVQIPPSTTYAITPMKRPMEEDGEEKSPSKKKKKIQKKEEKAEPPQAMNALMRLNQLKPGLQYKLVSQTGPVHAPIFTMSVEVDGNSFEASGPSKKTAKLHVAVKVLQDMGLPTGAEGRDSSKGEDSAEETEAKPAVVAPAPVVEAVSTPSAAFPSDATAEQGPILTKHGKNPVMELNEKRRGLKYELISETGGSHDKRFVMEVEVDGQKFQGAGSNKKVAKAYAALAALEKLFPDTPLALDANKKKRAPVPVRGGPKFAAKPHNPGFGMGGPMHNEVPPPPNLRGRGRGGSIRGRGRGRGFGGANHGGYMNAGAGYGSYGYGGNSATAGYSQFYSNGGHSGNASGGGGGGGGGSSGYGSYYQGDNYNSPVPPKHAGKKQPHGGQQKPSYGSGYQSHQGQQQSYNQSPYSNYGPPQGKQKGYNHGQGSYSYSNSYNSPGGGGGSDYNYESKFNYSGSGGRSGGNSYGSGGASYNPGSHGGYGGGSGGGSSYQGKQGGYSQSNYNSPGSGQNYSGPPSSYQSSQGGYGRNADHSMNYQYR

Sequences of proteins named here, by UniProt entry; tags and fusion partners are left off.
UniProt P0C746: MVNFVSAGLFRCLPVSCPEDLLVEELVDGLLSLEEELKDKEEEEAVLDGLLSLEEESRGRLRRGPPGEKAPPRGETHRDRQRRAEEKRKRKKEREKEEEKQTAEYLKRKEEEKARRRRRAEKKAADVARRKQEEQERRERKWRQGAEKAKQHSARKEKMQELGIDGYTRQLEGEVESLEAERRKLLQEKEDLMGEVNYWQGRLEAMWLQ
UniProt P12956: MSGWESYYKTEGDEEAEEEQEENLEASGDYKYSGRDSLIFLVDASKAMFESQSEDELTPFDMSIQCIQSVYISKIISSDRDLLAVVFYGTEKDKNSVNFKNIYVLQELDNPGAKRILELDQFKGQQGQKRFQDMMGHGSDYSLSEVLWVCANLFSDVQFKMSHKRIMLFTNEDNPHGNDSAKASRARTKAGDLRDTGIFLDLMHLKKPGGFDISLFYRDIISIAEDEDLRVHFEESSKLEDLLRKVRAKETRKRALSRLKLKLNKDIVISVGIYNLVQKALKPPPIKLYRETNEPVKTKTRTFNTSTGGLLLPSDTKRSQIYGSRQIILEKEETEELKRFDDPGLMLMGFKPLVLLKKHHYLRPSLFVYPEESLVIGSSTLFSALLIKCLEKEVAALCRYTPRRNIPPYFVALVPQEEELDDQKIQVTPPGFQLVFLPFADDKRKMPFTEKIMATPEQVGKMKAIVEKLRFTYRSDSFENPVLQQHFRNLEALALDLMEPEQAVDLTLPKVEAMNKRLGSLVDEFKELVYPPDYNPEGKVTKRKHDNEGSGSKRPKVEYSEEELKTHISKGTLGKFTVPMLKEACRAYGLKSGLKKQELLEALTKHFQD
UniProt P67809: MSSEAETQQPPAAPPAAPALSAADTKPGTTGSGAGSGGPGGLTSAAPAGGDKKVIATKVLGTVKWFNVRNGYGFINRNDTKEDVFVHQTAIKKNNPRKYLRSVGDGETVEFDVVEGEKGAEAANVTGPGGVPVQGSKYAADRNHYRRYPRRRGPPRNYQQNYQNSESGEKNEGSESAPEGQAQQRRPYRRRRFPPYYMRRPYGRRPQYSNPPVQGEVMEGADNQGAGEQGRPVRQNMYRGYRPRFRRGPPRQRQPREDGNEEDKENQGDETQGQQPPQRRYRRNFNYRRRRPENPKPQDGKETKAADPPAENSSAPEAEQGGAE
UniProt P13010: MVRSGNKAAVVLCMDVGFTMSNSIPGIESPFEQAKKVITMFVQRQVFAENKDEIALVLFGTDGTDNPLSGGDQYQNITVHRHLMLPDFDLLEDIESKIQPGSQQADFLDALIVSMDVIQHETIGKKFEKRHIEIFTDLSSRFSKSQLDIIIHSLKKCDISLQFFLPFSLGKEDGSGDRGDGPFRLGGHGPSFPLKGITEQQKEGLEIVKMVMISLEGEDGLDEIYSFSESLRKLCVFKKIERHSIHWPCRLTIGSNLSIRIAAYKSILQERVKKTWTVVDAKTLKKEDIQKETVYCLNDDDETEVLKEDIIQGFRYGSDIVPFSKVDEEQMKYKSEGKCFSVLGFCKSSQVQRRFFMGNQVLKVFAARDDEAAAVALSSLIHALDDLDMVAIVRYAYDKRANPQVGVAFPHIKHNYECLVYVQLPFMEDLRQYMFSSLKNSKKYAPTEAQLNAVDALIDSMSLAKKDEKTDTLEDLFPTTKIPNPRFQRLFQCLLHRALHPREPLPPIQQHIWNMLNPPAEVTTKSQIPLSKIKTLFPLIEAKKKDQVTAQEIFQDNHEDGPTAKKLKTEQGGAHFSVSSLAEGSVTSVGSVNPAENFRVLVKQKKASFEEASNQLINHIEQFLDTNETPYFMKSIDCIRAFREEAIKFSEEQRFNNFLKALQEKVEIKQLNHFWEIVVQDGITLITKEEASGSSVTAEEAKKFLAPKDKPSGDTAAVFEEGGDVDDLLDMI

Each molecule was assayed against S-tagged HBZ (HTLV-1 basic leucine zipper factor) (HTLV-1) (UniProt P0C746) (assay: affinity purification with mass spectrometry; S-tag affinity capture of S-tagged HBZ (and APH-2) from cell lysate, SDS-PAGE, in-gel trypsin, shotgun proteomics (Q Exactive, Mascot, Scaffold; probability >95%, minimum 2 peptides)).

Row | Molecule | binding
1 | XRCC6 (from UniProt P12956 1-609) | binds
2 | Y-box binding protein (YBX1) (from UniProt P67809 1-324) | binds
3 | XRCC5 (from UniProt P13010 1-732) | binds
4 | B1 | binds
5 | B2 | binds
6 | B3 | binds
